Laboratory results: PMC10341573, “Design, Synthesis, and Biological Evaluation of Novel Quinazolin-4(3H)-One-Based Histone Deacetylase 6 (HDAC6) Inhibitors for Anticancer Activity” (International Journal of Molecular Sciences, 2023)

Legend:
HEK 293 = assay: MTT cell proliferation assay, HEK 293; assay type: cell-based; conditions: Homo sapiens, HEK293, 72 h, read-out: IC50 ± SD HEK 293
Method: (§1) For cell viability and proliferation, the MTT assay was performed. […] This was followed by cell viability analysis using MTT according to the manufacturer’s instructions. Briefly, 10 μL of MTT solution was added to each well and incubated for 1–4 h at 37 °C. The formazan crystals formed were dissolved in 200 μL of solubilization solution (DMSO), and absorbance was recorded at 570 nm.

B16 = assay: MTT cell proliferation assay, B16; assay type: cell-based, murine; conditions: Mus musculus, B16, 72 h, read-out: IC50 ± SD B16
Method: as §1

MCF7 = assay: MTT cell proliferation assay, MCF7; assay type: cell-based; conditions: Homo sapiens, MCF7, 72 h, read-out: IC50 ± SD MCF7
Method: as §1

HCT116 = assay: MTT cell proliferation assay, HCT116; assay type: cell-based; conditions: Homo sapiens, HCT-116, 72 h, read-out: IC50 ± SD HCT116
Method: as §1

What does the source list for `O=C(CCCCCCC(=O)Nc1ccccc1)NO` [SAHA, suberoylanilidehydroxamic acid, reference compound]?
IC50 (HEK 293): 11.9 ± 3.42 µM; IC50 (B16): 32.9 ± 18 µM; IC50 (MCF7): 44.4 ± 8.3 µM; IC50 (HCT116): 7.99 ± 1.68 µM
